Source: paper PMC11355008
These are yes or no findings as the source states them, for the method shown. Binding seen in cells or lysates may run through a third protein. Some entries that bind do so weakly or less than the wild type. Sequences can lack the tags named with a protein.

Biological target: T1, HA2-N70Q-hTRESK (human) (UniProt Q7Z418)
T1 sequence: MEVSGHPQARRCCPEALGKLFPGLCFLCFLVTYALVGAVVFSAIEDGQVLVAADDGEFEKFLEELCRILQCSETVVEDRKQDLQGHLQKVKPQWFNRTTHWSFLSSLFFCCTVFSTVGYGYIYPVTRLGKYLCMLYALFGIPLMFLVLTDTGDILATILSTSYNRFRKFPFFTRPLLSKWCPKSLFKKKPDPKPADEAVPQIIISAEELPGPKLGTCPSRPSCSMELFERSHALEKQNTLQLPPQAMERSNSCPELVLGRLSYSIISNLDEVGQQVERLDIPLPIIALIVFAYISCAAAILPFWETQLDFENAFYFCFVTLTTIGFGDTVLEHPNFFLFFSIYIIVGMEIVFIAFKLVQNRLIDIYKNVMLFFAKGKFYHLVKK
Assay: co-IP; anti-HA agarose (Pierce HA Tag IP/Co-IP Kit) on the 1% NP-40 solubilized crude membrane fraction of Xenopus oocytes coexpressing both proteins; overnight at 4 °C; washed with Tris 25 mM pH 7.2, NaCl 150 mM, Tween-20 0.05%; anti-His immunoblot

binding: binds
B1: His8-hNDFIP1 (protein, UniProt Q9BT67-1 1-221)
chain: MALALAALAAVEPACGSRYQQLQNEEESGEPEQAAGDAPPPYSSISAESAAYFDYKDESGFPKPPSYNVATTLPSYDEAERTKAEATIPLVPGRDEDFVGRDDFDDADQLRIGNDGIFMLTFFMAFLFNWIGFFLSFCLTTSAAGRYGAISGFGLSLIKWILIVRFSTYFPGYFDGQYWLWWVFLVLGFLLFLRGFINYAKVRKMPETFSNLPRTRVLFIY
